# System: CAN1 locus
# Assay: Mutation spectra at the CAN1 locus
# Format: cell-based, yeast
# Settings: for Frequency of frameshifts among CAN1 mutations / Frequency of substitutions among CAN1 mutations / Frequency of deletions among CAN1 mutations: events/sequenced Can^r clones; for Frequency of deletions among CAN1 mutations: 67 bp deletion in pol30-Pol32E5, 16 bp in pol30-Rad27E6; for Frequency (%) of deletions among CAN1 mutations / Frequency (%) of frameshifts among CAN1 mutations / Frequency (%) of substitutions among CAN1 mutations: value in parentheses
# [1] = frameshift, events/total as printed
# [2] = substitution, events/total as printed
Molecule,Frequency of frameshifts among CAN1 mutations,Frequency of substitutions among CAN1 mutations,Frequency of deletions among CAN1 mutations,Frequency of CAN1 mutation G1→G0 [1],Frequency of CAN1 mutation G1→G2 [1],Frequency of CAN1 mutation G2→G3 [1],Frequency of CAN1 mutation T3→T4 [1],Frequency of CAN1 mutation C→A [2],Frequency of CAN1 mutation C→G [2],Frequency of CAN1 mutation G→A [2],Frequency of CAN1 mutation G→C [2],Frequency of CAN1 mutation T→G [2],Frequency (%) of deletions among CAN1 mutations [%],Frequency (%) of frameshifts among CAN1 mutations [%],Frequency (%) of substitutions among CAN1 mutations [%],other results
"pol30-Rad27E6: PCNA mutant evolved for Rad27, IDCL sequence DGDYDILKIREL (protein, left off: Gal4 activation domain, end not stated, kept) MLEAKFEEASLFKRIIDGFKDCVQLVNFQCKEDGIIAQAVDDSRVLLVSLEIGVEAFQEYRCDHPVTLGMDLTSLSKILRCGNNTDTLTLIADNTPDSIILLFEDTKKDRIAEYSLKLMDGDYDILKIRELQYDSTLSLPSSEFSKIVRDLSQLSDSINIMITKETIKFVADGDIGSGSVIIKPFVDMEHPETSIKLEMDQPVDLTFGAKYLLDIIKGSSLSDRVGIRLSSEAPALFQFDLKSGFLQFFLAPKFNDEE",11/26,14/26,1/26,1/11,1/11,1/11,1/11,5/14,3/14,1/14,2/14,2/14,4,42,54,Frequency of CAN1 mutation A1→A0 [1]: 1/11; Frequency of CAN1 mutation A5→A6 [1]: 1/11; Frequency of CAN1 mutation T1→T0 [1]: 1/11; Frequency of CAN1 mutation T2→T1 [1]: 1/11; Frequency of CAN1 mutation T3→T2 [1]: 1/11; Frequency of CAN1 mutation A→C [2]: 1/14
"pol30-Pol32E5: PCNA mutant evolved for Pol32, IDCL sequence DADNDFLKISEL (protein, left off: Gal4 activation domain, end not stated, kept) MLEAKFEEASLFKRIIDGFKDCVQLVNFQCKEDGIIAQAVDDSRVLLVSLEIGVEAFQEYRCDHPVTLGMDLTSLSKILRCGNNTDTLTLIADNTPDSIILLFEDTKKDRIAEYSLKLMDADNDFLKISELQYDSTLSLPSSEFSKIVRDLSQLSDSINIMITKETIKFVADGDIGSGSVIIKPFVDMEHPETSIKLEMDQPVDLTFGAKYLLDIIKGSSLSDRVGIRLSSEAPALFQFDLKSGFLQFFLAPKFNDEE",9/37,21/37,7/37,1/37,1/37,1/37,1/37,1/37,2/37,9/37,2/37,2/37,19,24,57,Frequency of CAN1 mutation A2→A3 [1]: 1/37; Frequency of CAN1 mutation C1→C0 [1]: 1/37; Frequency of CAN1 mutation T2→T3 [1]: 1/37; Frequency of CAN1 mutation T5→T4 [1]: 1/37; Frequency of CAN1 mutation T6→T5 [1]: 1/37; Frequency of CAN1 mutation G→T [2]: 5/37

# Reference: paper PMC2953525, “Subtle Alterations in PCNA-Partner Interactions Severely Impair DNA Replication and Repair” (PLoS Biology, 2010)
